For this test, the target named is human ADAM10, endogenous full length (human) (UniProt O14672). The test is described as follows: co-immunoprecipitation with ADAM10 from LIM1215 lysate by 8C7 or 4A11, Western blot.

Sequences of proteins named here, by UniProt entry; tags and fusion partners are left off. A change or cut given only in a name is not applied to a line headed by its entry. Residues count along the entry.
UniProt O14672: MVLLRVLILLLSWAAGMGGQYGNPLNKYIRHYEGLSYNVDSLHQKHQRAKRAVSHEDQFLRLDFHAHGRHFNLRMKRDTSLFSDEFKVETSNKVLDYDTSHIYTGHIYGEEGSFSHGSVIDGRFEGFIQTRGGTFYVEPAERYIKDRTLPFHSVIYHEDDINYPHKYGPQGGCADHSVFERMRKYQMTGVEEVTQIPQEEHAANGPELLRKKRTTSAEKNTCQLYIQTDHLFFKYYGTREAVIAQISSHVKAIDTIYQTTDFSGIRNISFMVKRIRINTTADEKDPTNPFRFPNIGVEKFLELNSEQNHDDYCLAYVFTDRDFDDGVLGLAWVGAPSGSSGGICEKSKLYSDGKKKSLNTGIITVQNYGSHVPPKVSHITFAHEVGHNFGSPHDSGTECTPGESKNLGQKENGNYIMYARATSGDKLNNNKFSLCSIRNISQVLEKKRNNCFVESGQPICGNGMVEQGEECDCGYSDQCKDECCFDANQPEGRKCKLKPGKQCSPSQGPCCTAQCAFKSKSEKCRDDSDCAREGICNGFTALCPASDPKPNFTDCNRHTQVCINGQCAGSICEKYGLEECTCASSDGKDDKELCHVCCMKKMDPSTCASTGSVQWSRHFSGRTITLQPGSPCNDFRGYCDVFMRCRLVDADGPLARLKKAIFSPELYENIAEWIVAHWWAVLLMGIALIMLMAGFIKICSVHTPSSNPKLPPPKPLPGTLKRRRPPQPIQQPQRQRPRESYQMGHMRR
UniProt P46531, residues 1665-2555: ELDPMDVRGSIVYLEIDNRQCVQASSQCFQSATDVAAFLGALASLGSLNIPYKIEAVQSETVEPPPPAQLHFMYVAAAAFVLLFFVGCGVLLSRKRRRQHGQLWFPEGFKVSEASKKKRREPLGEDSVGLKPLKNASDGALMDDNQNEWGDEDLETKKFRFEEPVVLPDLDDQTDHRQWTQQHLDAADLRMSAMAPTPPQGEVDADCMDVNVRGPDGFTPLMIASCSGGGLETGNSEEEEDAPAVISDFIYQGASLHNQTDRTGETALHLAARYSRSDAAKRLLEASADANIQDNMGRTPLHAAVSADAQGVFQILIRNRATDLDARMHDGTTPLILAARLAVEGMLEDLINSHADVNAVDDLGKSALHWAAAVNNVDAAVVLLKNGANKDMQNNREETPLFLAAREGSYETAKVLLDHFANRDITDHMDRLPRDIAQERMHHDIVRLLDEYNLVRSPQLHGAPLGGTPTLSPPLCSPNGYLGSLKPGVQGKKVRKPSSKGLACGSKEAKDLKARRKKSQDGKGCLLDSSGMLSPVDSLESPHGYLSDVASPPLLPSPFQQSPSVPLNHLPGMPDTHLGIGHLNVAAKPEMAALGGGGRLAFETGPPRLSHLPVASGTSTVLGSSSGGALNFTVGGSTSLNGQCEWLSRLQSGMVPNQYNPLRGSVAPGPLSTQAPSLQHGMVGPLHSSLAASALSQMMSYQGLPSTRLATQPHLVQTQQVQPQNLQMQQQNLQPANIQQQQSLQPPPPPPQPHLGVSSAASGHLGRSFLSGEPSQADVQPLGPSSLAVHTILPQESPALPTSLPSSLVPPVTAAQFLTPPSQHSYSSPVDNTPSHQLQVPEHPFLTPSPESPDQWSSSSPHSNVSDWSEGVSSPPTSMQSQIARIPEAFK

No constants are given. Whether binding was seen depends on the method and setting. Binding seen in cells or lysates may run through a third protein. Some entries that bind do so weakly or less than the wild type.

For the molecule “Notch 1 (from UniProt P46531) (receptor)”, the binding result is “binds”.

B1: Notch 2 (receptor, UniProt Q04721 1609-2471, looked up)
receptor chain: SLPGEQEQEVAGSKVFLEIDNRQCVQDSDHCFKNTDAAAALLASHAIQGTLSYPLVSVVSESLTPERTQLLYLLAVAVVIILFIILLGVIMAKRKRKHGSLWLPEGFTLRRDASNHKRREPVGQDAVGLKNLSVQVSEANLIGTGTSEHWVDDEGPQPKKVKAEDEALLSEEDDPIDRRPWTQQHLEAADIRRTPSLALTPPQAEQEVDVLDVNVRGPDGCTPLMLASLRGGSSDLSDEDEDAEDSSANIITDLVYQGASLQAQTDRTGEMALHLAARYSRADAAKRLLDAGADANAQDNMGRCPLHAAVAADAQGVFQILIRNRVTDLDARMNDGTTPLILAARLAVEGMVAELINCQADVNAVDDHGKSALHWAAAVNNVEATLLLLKNGANRDMQDNKEETPLFLAAREGSYEAAKILLDHFANRDITDHMDRLPRDVARDRMHHDIVRLLDEYNVTPSPPGTVLTSALSPVICGPNRSFLSLKHTPMGKKSRRPSAKSTMPTSLPNLAKEAKDAKGSRRKKSLSEKVQLSESSVTLSPVDSLESPHTYVSDTTSSPMITSPGILQASPNPMLATAAPPAPVHAQHALSFSNLHEMQPLAHGASTVLPSVSQLLSHHHIVSPGSGSAGSLSRLHPVPVPADWMNRMEVNETQYNEMFGMVLAPAEGTHPGIAPQSRPPEGKHITTPREPLPPIVTFQLIPKGSIAQPAGAPQPQSTCPPAVAGPLPTMYQIPEMARLPSVAFPTAMMPQQDGQVAQTILPAYHPFPASVGKYPTPPSQHSYASSNAAERTPSHSGHLQGEHPYLTPSPESPDQWSSSSPHSASDWSDVTTSPTPGGAGGGQRGPGTHMSEPPHNNMQVYA
As for B1, the binding result is reported as “binds”.

Values taken from patent publication US20190105405A1 (MONASH UNIVERSITY, published 2019).
